Data as given in PubChem BioAssay AID1508587 (Peter MacCallum Cancer Centre, 2020)
Assay: 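Retest of knockdowns boosting BRAF inhibitor action on lactate release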 (follow-up of hits). System: human WM266.4 melanoma cells with a BRAF V600 mutation. Reagents: single siRNA against human genes, 25 nM. Timing: 96 h. Treatment: vemurafenib 300 nM (about IC25), given 48 h after transfection for 48 h. Detection: 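Medium lactate read by absorbance over DAPI-counted nuclei; ratio with versus without vemurafenib, set against non-targeting siRNA, averaged over 2 replicates; cell number also recorded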. Reading the numbers: lactate per cell, drug vs no drug: higher = less drug-induced drop in lactate per cell; lactate per cell with vemurafenib: higher = more lactate per cell under drug. Active means: 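a duplex is active when its lactate-per-cell ratio with versus without drug falls under 0.55, i.e. 2 SD below non-targeting; a gene is confirmed if 2 or more of 4 duplexes pass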.
The deposit covers about 1,600 reagents; below is a random part of them. 623 of all reagents (39%) were called active. 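Calls are for each duplex; lactate ratios contain extreme outliers.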 Unmarked entries are inactive. Reagents against one gene are numbered here. Further read-outs or replicates are left out here.

Against AXL #1, the entry reads lactate per cell, drug vs no drug 0.62; lactate per cell with vemurafenib 0.86. AXL #2 gave lactate per cell, drug vs no drug 0.61; lactate per cell with vemurafenib 1.38. AXL #3 gave lactate per cell, drug vs no drug 0.41 (active); lactate per cell with vemurafenib 0.6. Silencing of AXL #4 gave: lactate per cell, drug vs no drug 0.54 (active); lactate per cell with vemurafenib 0.54.

2 of these entries, set out differently:
gene knocked down | siRNA no. | lactate per cell, drug vs no drug | lactate per cell with vemurafenib
AXL | 2 | 0.61 | 1.38
AXL | 3 | 0.41 (active) | 0.6

Further entries follow:
After knock-down of NAA40 #1, the screen gave lactate per cell, drug vs no drug 0.56; lactate per cell with vemurafenib 1.14. NAA40 #2 gave lactate per cell, drug vs no drug 0.56; lactate per cell with vemurafenib 0.98. With knock-down of NAA40 #3, the record shows lactate per cell, drug vs no drug 0.64; lactate per cell with vemurafenib 1.5. Silencing of NAA40 #4 came out at: lactate per cell, drug vs no drug 0.74; lactate per cell with vemurafenib 0.96. MAP2K3 #1 showed lactate per cell, drug vs no drug 0.48 (active); lactate per cell with vemurafenib 0.48. MAP2K3 #2 gave lactate per cell, drug vs no drug 0.44 (active); lactate per cell with vemurafenib 0.94.

For MAP2K3 #3, the values are lactate per cell, drug vs no drug 0.74; lactate per cell with vemurafenib 1.08. With knock-down of MAP2K3 #4 the results were lactate per cell, drug vs no drug 0.6; lactate per cell with vemurafenib 1.19.
